Molecules are shown by their SMILES. In all, about 1,300 compounds went through this assay and about 270 (21%) were called active.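 Rule for the calls: active = dose-dependent rise or fall in viability, either side of zero, with half-maximal concentration at or below a set limit; inconclusive = flat curve at 30 to 70% viability loss, or poor fit; inactive = flat within 30% either way, or potency beyond limit.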 The list shows a part of the results. Potency and affinity values are given separately.

Data on 60 molecules can be found in PubChem BioAssay AID540335 (Broad Institute, 2011).

A short description of this experiment: A375 melanoma cell viability reduction, dose response, counter-screen for MITF modulator project, cherry-pick samples, set 2 (AID 540335).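 Note: A375 human melanoma cells which do not depend on MITF; 0% = median of neutral control wells and 100% = double that signal.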 The conditions noted are these: CellTiter-Glo ATP luminescence, 24 h; at 35 µM (top of the series).
Consider `C=CCC(Nc1ccccc1)C12C=CC(O1)C(C(=O)OC)=C2C(=O)OC` (stereo not given), for which the activity change, negative = decreased viability is inactive: 9.9%.

As to `O=C1Nc2ccc(Br)cc2/C1=C/C(=O)c1ccc2c(c1)OCO2`, the activity change, negative = decreased viability is inactive: 20.9%.

Take `CC(C)(C)c1ccc(/C=N/Nc2ccc(C(=O)O)cc2)cc1`: the activity change, negative = decreased viability is inactive: 6.22%.

With `CCN(CC)CCNC(=O)c1ccc(NC(=O)c2cn(-c3ccccc3)nc2-c2cccs2)cc1`, the activity change, negative = decreased viability was inactive: -38.3%.

As to `O=C(CCCc1ccccc1)N1CCN(C2CCCCC2)CC1`, the activity change, negative = decreased viability was inactive: 1.04%.

As to `O=C(COC(=O)c1ccc[nH]c1=O)Nc1ccc(N2CCCCC2)cc1`, the activity change, negative = decreased viability is inactive: 5.85%.

Consider `COc1ccc(NC(=O)c2cc(-c3ccccc3Cl)on2)cc1`, for which the activity change, negative = decreased viability was inactive: 3.51%.

On to `COCCCn1[nH]c2c3c(ccc2c1=O)C(=O)c1ccccc1C3=O`, for which the activity change, negative = decreased viability is inactive: -9.87%.

Turning to `Cc1ccc2[nH]c(=O)c(CN(CCCN(C)C)C(=O)Nc3cccc(Cl)c3)cc2c1`, the activity change, negative = decreased viability was inactive: -48%.

`Cc1ccc(NC(=O)CN(C)C(=O)Cn2ncc(Cl)c(Cl)c2=O)cc1`: the activity change, negative = decreased viability is inactive: 69.3%.

Consider `COc1ccccc1OCCN1CSC(=S)N(C)C1`, for which the activity change, negative = decreased viability is inactive: 6.44%.

Consider `CCOC(=O)N1CCC(NC(=O)C2CCCN(Cc3nc(-c4cccc(C)c4)oc3C)C2)CC1` (stereo not given), for which the activity change, negative = decreased viability was inactive: -3.74%.

As to `CCN(CC)CCNC(=O)c1ccc(NC(=O)c2cccc(S(=O)(=O)N3c4ccccc4CC3C)c2)cc1` (stereo not given), the activity change, negative = decreased viability was inactive: -12.4%.

For the molecule `c1ccc(CSc2nnc(-c3ccco3)n2Cc2ccco2)cc1`, the activity change, negative = decreased viability is inactive: 6.17%.

Turning to `COc1cc(OC)cc(C(=O)N[C@H](C(=O)Nc2nc3ccccc3[nH]2)C(C)C)c1`, the activity change, negative = decreased viability is inactive: 9.07%.

Regarding `Cc1ccc2sc(N(CCCN(C)C)C(=O)c3ccc(S(=O)(=O)N(C)C4CCCCC4)cc3)nc2c1C`, the activity change, negative = decreased viability is inactive: -39.9%.

In the case of `CCn1c(C)cc(C(=O)CN2C(=O)c3ccccc3S2(=O)=O)c1C`, the activity change, negative = decreased viability is inactive: 2.06%.

For `O=[N+]([O-])c1ccc(Sc2cc[n+]([O-])c3ccccc23)c([N+](=O)[O-])c1`, the activity change, negative = decreased viability was inactive: -2.51%.

Turning to `CCOc1ccc(-c2noc(CCC(=O)O)n2)cc1`, the activity change, negative = decreased viability was inactive: 5.81%.

Consider `Cc1cccc(NC(=O)Cc2ccc(Br)cc2)n1`, for which the activity change, negative = decreased viability was inactive: 11.2%.

As for `C=C1CCC[C@]2(C)C[C@H]3OC(=O)C(CN4CCCCC4CO)[C@H]3CC12` (stereo not given in full), the activity change, negative = decreased viability is inactive: -23.8%.

As for `COc1ccc2nc(C)cc(SCC(=O)N/N=C/c3ccc(O)cc3O)c2c1`, the activity change, negative = decreased viability is inactive: -29.4%.

With `COc1cccc(NC(=O)Nc2cccc(C(=O)O)c2)c1`, the activity change, negative = decreased viability was inactive: 1.68%.

Consider `Cc1ccc(C2CC(C(F)(F)F)n3nc(C(=O)NCc4c(C)nn(C)c4C)c(Cl)c3N2)cc1` (stereo not given), for which the activity change, negative = decreased viability was inactive: -20.6%.

Regarding `Cc1csc(N/N=C/c2ccc([N+](=O)[O-])cc2)n1`, the activity change, negative = decreased viability was inactive: 5.61%.

In the case of `Oc1ccccc1/C=N/Nc1cccc2cccnc12`, the activity change, negative = decreased viability was inactive: -36.4%.

Consider `O=C(Cn1cnc2c(oc3ccccc32)c1=O)c1ccccc1`, for which the activity change, negative = decreased viability is inactive: 0.836%.

`Oc1ccc(-c2nnc(SCC3CCCCC3)o2)cc1`: the activity change, negative = decreased viability was inactive: 3.91%.

Take `O=[N+]([O-])c1ccc(-n2nnnc2-c2ccccc2)c([N+](=O)[O-])c1`: the activity change, negative = decreased viability is inactive: 2.45%.

Consider `Cc1[nH]c2ccccc2c1C(=O)CCl`, for which the activity change, negative = decreased viability was inactive: -3.71%.

As for `Fc1cccc(Cl)c1CSc1nnc(-c2ccncc2)o1`, the activity change, negative = decreased viability is inactive: 4.01%.

For the molecule `COC(=O)c1ccc(COc2ccc(C)cc2[N+](=O)[O-])o1`, the activity change, negative = decreased viability was inactive: 2.9%.

As for `NC(=O)c1cc([N+](=O)[O-])ccc1NCc1ccc(N)cc1`, the activity change, negative = decreased viability was inactive: -10.9%.

For the molecule `O=C1NC2c3c(I)sc(I)c3C(=O)C2O1` (stereo not given), the activity change, negative = decreased viability was inactive: -17.4%.

For the molecule `Cc1cc(C)n(-c2ccc(C(=O)Nc3ccc(C)c(S(=O)(=O)N4CCOCC4)c3)cc2)n1`, the activity change, negative = decreased viability is inactive: -12.6%.

In the case of `Cn1nnnc1Sc1ncnc2scc(-c3ccsc3)c12`, the activity change, negative = decreased viability was inactive: -1.27%.

`Cc1c(OCC(=O)NC2CC(C)(C)NC(C)(C)C2)ccc2c1oc(=O)c1ccccc12`: the activity change, negative = decreased viability is inactive: -14%.

In the case of `Cc1ccc(-c2c[n+](Cc3cccc(Cl)c3)c3n2CCC3)cc1`, the activity change, negative = decreased viability was inactive: -7.36%.

Consider `O=C(NC1=C(Nc2ccc(Cl)cc2)C(=O)c2ccccc2C1=O)c1ccccc1`, for which the activity change, negative = decreased viability was inactive: -34.3%.

For the molecule `O=C(O)c1cccc(COc2ccccc2Cl)c1`, the activity change, negative = decreased viability is inactive: -0.09%.

In the case of `O=C(C[n+]1cc(-c2ccc(F)cc2)n2c1CCC2)c1cccs1`, the activity change, negative = decreased viability was inactive: -0.701%.

For the molecule `O=C(COC(=O)C1=COCCO1)Nc1c(F)cccc1F`, the activity change, negative = decreased viability was inactive: 2.23%.

For `CCSc1ccccc1C(=O)n1nnc2ccccc21`, the activity change, negative = decreased viability was inactive: -32.2%.

As for `Cc1ccc(-n2[nH]c(=O)c(-c3ccccn3)c2C)cc1`, the activity change, negative = decreased viability is inactive: 0.923%.

Consider `N/C(=N\OC(=O)c1ccc(Cl)cc1Cl)c1ccncc1`, for which the activity change, negative = decreased viability was inactive: 5.82%.

On to `CC(C)C(=O)N1CCN(c2ccc(NC(=O)c3ccc([N+](=O)[O-])o3)cc2Cl)CC1`, for which the activity change, negative = decreased viability is inactive: 29.3%.

Turning to `CC(=O)c1cccc(NC(=O)/C=C/c2ccc([N+](=O)[O-])s2)c1`, the activity change, negative = decreased viability was inactive: 5.26%.

As for `Cn1c(/C=C/c2ccc(Cl)cc2)nc2ccccc2c1=O`, the activity change, negative = decreased viability is inactive: -3.66%.

As to `Cc1ccccc1OCc1nc2c3cnn(C)c3ncn2n1`, the activity change, negative = decreased viability is inactive: -3.15%.

As for `COc1ccccc1N1C(=O)N(C(C)=O)C2C1Nc1ccccc1N2C` (stereo not given), the activity change, negative = decreased viability was inactive: 10.7%.

`N#C/C(C(=O)c1ccccc1)=C1/CCCCCN1`: the activity change, negative = decreased viability was inactive: 9.85%.

Regarding `CN(C)CCNC(=O)COc1ccc(C23CC4CC(CC(C4)C2)C3)cc1`, the activity change, negative = decreased viability was inactive: -10.8%.

In the case of `CCCC(=O)NC(c1ccc(OC)c(OC)c1)c1cc(Cl)c2cccnc2c1O` (stereo not given), the activity change, negative = decreased viability is inactive: -33.1%.

`CCN(CC)S(=O)(=O)c1ccc(N2CCCC2)c(NC(=O)c2ccc([N+](=O)[O-])o2)c1`: the activity change, negative = decreased viability was inactive: -10.5%.

As for `O=C(CCl)Nc1cccc(S(=O)(=O)NC2=NCCCCC2)c1`, the activity change, negative = decreased viability is inactive: 1.18%.

With `O=[N+]([O-])/C=C\c1ccc(N2CCCC2)c(F)c1`, the activity change, negative = decreased viability was inactive: -0.297%.

For `O=C(N/N=C/c1ccc([N+](=O)[O-])o1)c1ccc(O)cc1`, the activity change, negative = decreased viability is inactive: -17.7%.

In the case of `CCNC(=O)CC1C(=O)N(c2ccc(F)cc2)C(=O)N1CCc1ccc(OC)cc1` (stereo not given), the activity change, negative = decreased viability is inactive: 1.95%.

As to `CN(C)c1ccc(/C=C/c2cccc[n+]2[O-])cc1`, the activity change, negative = decreased viability was inactive: 7.1%.

For `CC(=O)N(C)C1=C(N2CCOCC2)C(=O)c2ccccc2C1=O`, the activity change, negative = decreased viability was inactive: -38%.
